# At least one structure is not confirmed: it was looked up by name or label, or the drawing left a doubt.
# System: intragastric pH
# Assay: Clinical study 1, Cohort 2: 24-hour intragastric pH measurement on repeated co-administration
# Type: in vivo, human
# Conditions: 40 mg with amoxicillin/clarithromycin
# From the text: To identify an effect of eradicating Helicobacter pylori in the present invention, a clinical study was designed in accordance with a randomized, open-label, active-controlled, parallel and multiple-dose design. A total of 221 patients were subjected to screening for this study. Out of them, 36 patients were registered thereto and the completed clinical results were obtained from 34 patients.
# Particularly, the 36 patients above were divided into three patient groups (T1, T2 and R) and the clinical study was performed accordingly. […]
# The T1 group was repeatedly given 50 mg of CJ-12420 and 1000 mg of amoxicillin/500 mg of clarithromycin twice a day for seven days; the T2 group was repeatedly given 100 mg of CJ-12420 and 1000 mg of amoxicillin/500 mg of clarithromycin twice a day for seven days; and the R group was repeatedly given 40 mg of pantoprazole and 1000 mg of amoxicillin/500 mg of clarithromycin twice a day for seven days. An intragastric pH was measured from all the subjects on Day 1 for 24 hours, and the intragastric pH was also measured for 24 hours on Day 1 and Day 7 of repeated administration. Also, a negative conversion rate was calculated upon a follow-up visit paid by subjects who were identified to be H. pylori positive on the UBT test during screening, and stability evaluation was performed according to a predetermined schedule. […]
compound,measurement,value
COc1ccnc(C[S+]([O-])c2nc3ccc(OC(F)F)cc3[nH]2)c1OC (stereo not shown) [pantoprazole],speed of pH increase right after the administration,slow
